PubChem BioAssay AID1259308 – NCATS | 2017

Purpose: 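Knock-downs that increase output of a recombinant reporter protein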 (primary screen)
System: human HEK293 embryonic kidney cells stably expressing firefly luciferase (HEK-CMV-Luc2-Hygro)
Reagent: single siRNA against human genes, 0.8 pmol siRNA per well
Time to read-out: 72 h
Detection: 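Reporter luminescence and viable-cell signal on separate replicate plates, given as percent of non-targeting control and median/MAD z-scores, plus per-cell luciferase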
Direction: total luciferase, z-score: higher = more reporter protein produced
Active means: 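Active when the median/MAD z-score for overall luciferase is greater than 3; a gene was taken forward for validation with new siRNAs if at least two of its three siRNAs passed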
Meaning of the calls: active = raised luciferase; inactive = no rise
The whole screen tested about 59,000 reagents; this is a part drawn at random. In the full data, about 1,510 (2.6%) were called active. 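Calls use total luciferase alone and ignore viability, so some active siRNAs may act by altering cell number.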 Entries without a mark were called inactive. The numbers tell different reagents against one gene apart. Not all columns of the deposit are shown.

total luciferase, z-score, by gene and reagent
CES2 (GeneID 8824): #1 2.44; #2 0.0412; #3 -1.29
C20orf202 (GeneID 400831): #1 2.35; #2 4.35 (active); #3 -1.62
ZNF792 (GeneID 126375): #1 2.57; #2 -0.225; #3 -1.03
PLA2G5 (GeneID 5322): #1 0.758; #2 3.07 (active); #3 -1.43
ZNF256 (GeneID 10172): #1 -0.59; #2 0.27; #3 -0.185
RPS27 (GeneID 6232): #1 -1.53; #2 -2.05; #3 -2.38
HRH3 (GeneID 11255): #1 1.14; #2 -1.21; #3 -1.18
GOLGA3 (GeneID 2802): #1 0.415; #2 -0.11; #3 -0.268

A portion taken from the entries so far, for reference:
total luciferase, z-score, by gene and reagent
HRH3 (GeneID 11255): #1 1.14; #2 -1.21

Next results follow.
total luciferase, z-score, by gene and reagent
ARMC5 (GeneID 79798): #1 0.216; #2 0.559; #3 0.68
MRGPRG-AS1 (GeneID 283303): #1 -0.2; #2 0.424; #3 -0.115
MATN4 (GeneID 8785): #1 2.8; #2 2.02; #3 -0.0694
PAQR5 (GeneID 54852): #1 -1.15; #2 0.0672; #3 2.34
KCTD18 (GeneID 130535): #1 -1.63; #2 -1.75; #3 0.967
